Reference: patent publication US8431611B2, “Artemisinin derivatives” (Johns Hopkins University, priority 2006, dated 2013)

Each compound was assayed on T. gondii strain 2F (assay: In vitro inhibition of T. gondii (growth inhibition assay)). Conditions: not given.
Assay type: cell-based, Toxoplasma gondii
Procedure: Normal human foreskin fibroblasts (American Type Culture Collection, Manassas, Va.) were used to grow tachyzoites and to test compounds for activity and cytotoxicity. Cells were maintained in Dulbecco's modified Eagle medium (Gibco, Grand Island, N.Y.) containing 10% fetal bovine serum (Atlas Biologicals, Fort Collins, Colo.), 25 mM HEPES (Gibco), 2 mM L-glutamine, 50 units of penicillin G per ml, and 50 μg of streptomycin sulfate per ml. A culture of the tachyzoites of T. gondii strain 2F, which constitutively expresses cytoplasmic β-galactosidase and is derived from strain RH (5), was a gift from Vern Carruthers, University of Michigan Medical School.
The compounds were tested for in vitro efficacy against T. gondii and cytotoxicity by previously published methods (9, 10). The median inhibitory dose (50% inhibitory dose [ID50]) and the median cytotoxic dose (50% toxic dose [TD50]) were calculated by extrapolation of the corresponding dose-response curve on a log-linear plot employing the portions of the curve that transected the 50% response point. For each compound, a therapeutic index (TI) was calculated by the formula TI=TD50/ID50.
Artemisinin was obtained from Holley Pharmaceuticals Co., Inc., Fullerton, Calif. Artemether was generously donated by Huiling Wang, University of Wuhan, China. Trimethoprim was purchased from Sigma Chemical Co. (St. Louis, Mo.). Chlorophenol red-β-D-galactopyranoside (Roche, Indianapolis, Ind.), 100 mM in 100 mM HEPES (pH 7.2), was stored frozen at −80° C. CellTiter 96 AQueous One Solution Reagent for determining cytotoxicity was purchased from Promega Corp., Madison, Wis.

For CC1=C(c2nc3ccccc3s2)OC2OC3(C)CCC4C(C)CCC1C24OO3 (stereo not drawn) [Compound 3b, DART-Benzothiazole], which TI is on record?
The TI was 28.

Same assay, conditions: Table 1; TI=TD50/ID50

For CC1CCC2C(C)C(CCCOC(=O)c3ccccc3Br)OC3OC4(C)CCC1C32OO4 (stereo not drawn) [Compound 2c], which TI is on record?
The TI was “≧933”.

For C[C@H]1[C@@H](CCCO)O[C@@H]2O[C@]3(C)CC[C@H]4[C@H](C)CC[C@@H]1[C@@]24OO3 [Compound 2a, ART-PrOH], which TI is on record?
The TI was 190.

For C[C@H]1[C@@H](CCCO)O[C@@H]2O[C@]3(C)CC[C@H]4[C@H](C)CC[C@@H]1[C@@]24O3 [Deoxy-2a, Deoxy-ART-PrOH], which TI is on record?
Its TI is 1.2.

C[C@@H]1CC[C@H]2[C@@H](C)C(=O)O[C@@H]3O[C@@]4(C)CC[C@@H]1[C@]32OO4 [Artemisinin] was tested. Which TI did it give?
Its TI is “≧243”.

CC(C)=CCCC(C)CCOCCCC1OC2OC3(C)CCC4C(C)CCC(C1C)C24OO3 (stereo not drawn) [Compound 2d] was tested. Which TI did it give?
Its TI is 320.

For CC1CCC2C(C)C(CCCOC(=O)c3ccccc3)OC3OC4(C)CCC1C32OO4 (stereo not drawn) [Compound 2b], which TI is on record?
Its TI is “≧933”.

Which TI does the source give for COc1cc(Cc2cnc(N)nc2N)cc(OC)c1OC [Trimethoprim, reference compound] here?
The TI was 12.

Same assay, conditions: Table 2; TI = TD50/ID50

For CC1=C(c2nccs2)OC2OC3(C)CCC4C(C)CCC1C24OO3 (stereo not drawn) [Compound 3a, DART-Thiaz], which TI is on record?
Its TI is 975.

CCNC(=O)C1=C(C)C(C)C(C)O1 (stereo not drawn) [Compound 3f, DART-C(O)—NHEt] was tested. Which TI did it give?
Its TI is 52.

Which TI does the source give for COC(=O)C1=C(C)C(C)C(C)O1 (stereo not drawn) [Compound 3e, DART-C(O)—OMe] here?
Its TI is 210.

How did the TI turn out when CC1=C(c2nccs2)OC2O[C@]3(C)CC[C@H]4[C@H](C)CC[C@@H]1[C@@]24O3 (stereo partly drawn) [Deoxy-3a, deoxy-DART-thiaz] was run?
The TI was 1.8.

How did the TI turn out when CC1=C(C=O)OC(C)C1C (stereo not drawn) [Compound 3c, DART-ald] was run?
Its TI is 92.

For CC1=C(C(=O)O)OC(C)C1C (stereo not drawn) [Compound 3d, DART-C(O)—OH], which TI is on record?
The TI was 60.

Which TI does the source give for COc1cc(Cc2cnc(N)nc2N)cc(OC)c1OC [Trimethoprim, reference compound] here?
The TI was 11.
